Data on one substance can be found in patent publication US5198425 (dated 1993).

Strings that start with PEPTIDE1 are HELM notation: dots part the residues, brackets hold end groups and non-standard residues.

The nature of the data set: general procedure: peptide synthesis; Boc-Leu-CH2-PAB resin. Particulars: whole synthesis, analytical HPLC, trifluoroacetate.

In the case of “PEPTIDE1{[ac].T.D.D.L.S.N.F.Q.L}$$$$V2.0”, the “final HPLC purity” value is reported as “at least 95%”.
